Test results as given in PubChem BioAssay AID330 (DTP/NCI, 2004).
The list shows only some results of the screen, not a fair sample: it gathers tests that were run many times, whatever their T/C, doses with no T/C, and many T/C values between a quarter and a half above the control. Other doses and runs of a compound stand elsewhere. T/C: endpoint of the treated group in % of that of the vehicle group. Some doses have a count of surviving animals in place of a T/C: the source holds a T/C of zero for them, seemingly a mark for toxic or unscored doses. Some survivor counts are full or nearly so, which does not show that the dose was tolerated: survival well below the control is almost never listed, so the zero probably covers shortened survival too. Survivors were counted at the toxicity check, usually on the fifth day, unless a day is given; later deaths do not show. Schedules are NCI's codes, taken here to give the interval after Q, in days (D) or hours (H), and the number of doses after X. Additions like (4×) count equal records among those shown. Some entries were tested several times; the results are listed from low to high. Some schedule codes hold Z or #, which are not explained here. For survival time, the PubChem record calls one and a half times the control and up active, and a quarter to a half above the control has no call in these data; cut-offs in other NCI protocols can differ. Some T/C values are followed by the survivors on the day toxicity was checked, most often the fifth; where none is given, no animal had died by that day.

System: P388 leukemia ip, CD2F1 mice, survival T/C
Assay: NCI In Vivo Anticancer Drug Screen. Data for tumor model P388 Leukemia (intraperitoneal) in CD2F1 (CDF1) mice
Conditions: T/C endpoint: median survival time, higher T/C = longer survival
[1] = dose: 50.0 mg/kg/injection, schedule: Q01DX001 (ip), vehicle: Klucel (hydroxypropylcellulose) (HPC)
[2] = dose: 100.0 mg/kg/injection, schedule: Q01DX001 (ip), vehicle: Klucel (hydroxypropylcellulose) (HPC)
[3] = dose: 200.0 mg/kg/injection, schedule: Q01DX001 (ip), vehicle: Klucel (hydroxypropylcellulose) (HPC)
[4] = dose: 400.0 mg/kg/injection, schedule: Q01DX001 (ip), vehicle: Klucel (hydroxypropylcellulose) (HPC)
[5] = dose: 200.0 mg/kg/injection, schedule: Q01DX005 (ip), vehicle: saline with Tween-80
[6] = dose: 240.0 mg/kg/injection, schedule: Q01DX005 (ip), vehicle: saline with Tween-80
[7] = dose: 200.0 mg/kg/injection, schedule: Q01DX009 (ip), vehicle: saline
[8] = dose: 1.56 mg/kg/injection, schedule: Q01DX009 (ip), vehicle: saline with Tween-80
[9] = dose: 400.0 mg/kg/injection, schedule: Q04DX002 (ip), vehicle: saline with Tween-80
[10] = dose: 25.0 mg/kg/injection, schedule: Q01DX005 (ip), vehicle: saline with Tween-80
[11] = dose: 50.0 mg/kg/injection, schedule: Q01DX005 (ip), vehicle: saline with Tween-80
[12] = dose: 400.0 mg/kg/injection, schedule: Q04DX003 (ip), vehicle: saline with Tween-80
[13] = dose: 200.0 mg/kg/injection, schedule: Q01DX009 (ip), vehicle: saline with Tween-80
[14] = dose: 100.0 mg/kg/injection, schedule: Q01DX009 (ip), vehicle: water
[15] = dose: 100.0 mg/kg/injection, schedule: Q01DX005 (ip), vehicle: saline with Tween-80
[16] = dose: 100.0 mg/kg/injection, schedule: Q01DX009 (ip), vehicle: saline

In the case of `c1cn(C23CC4CC(CC(C4)C2)C3)cn1`, the survivor count [1] is reported as 0 of 6, the survivor count [2] is reported as 0 of 6 (2×) and the survivor count [3] is reported as 0 of 6. The survivor count [4] was 0 of 6.
With `O=[N+]([O-])c1ccc(N=Nc2ccc(NNc3ccc([N+](=O)[O-])cn3)c3cc4ccccc4cc23)nc1` the survivor count [5] was 0 of 6.
`CC(NNC(=S)N1CCCCCC1)c1ccccn1` (stereo unspecified) was tested, and the survivor count (dose: 100.0 mg/kg/injection, schedule: Q01DX005 (ip), vehicle: Klucel (hydroxypropylcellulose) (HPC)) was 4 of 6 and the survivor count (dose: 200.0 mg/kg/injection, schedule: Q01DX005 (ip), vehicle: Klucel (hydroxypropylcellulose) (HPC)) was 0 of 6.
With `CCOc1cccs1` the survivor count [6] was 2 of 6.
With `COC(=O)c1cc(NC(=O)O/N=C/c2cccnc2)cc(C(=O)OC)c1` the survivor count [7] was 6 of 6.
In the case of `CCN(CC)CCOc1ccc(C(C)=O)cc1`, the survivor count [5] is reported as 0 of 6.
With `O=c1[nH]cnc2nn(C3OC(CO)C(O)C3O)cc12` (stereo unspecified) the T/C [8] was 135 % of control, the survivor count [8] was 6 of 6 and the survivor count (dose: 6.25 mg/kg/injection, schedule: Q01DX009 (ip), vehicle: saline with Tween-80) was 6 of 6.
In the case of `Cc1cc(C)c(N(C)C)c(C)c1`, the survivor count [9] is reported as 3 of 6.
In the case of `CCc1cccc2c(NCCCCCCCCNc3c4ccccc4nc4c(CC)cccc34)c3ccccc3nc12`, the T/C (dose: 5.0 mg/kg/injection, schedule: Q## X009 (ip), vehicle: lactic acid) is reported as 130 % of control, the T/C (dose: 10.0 mg/kg/injection, schedule: Q01DX005 (ip), vehicle: other) is reported as 127 % of control [2 of 3 alive] and the T/C (dose: 15.0 mg/kg/injection, schedule: Q01DX005 (ip), vehicle: other) is reported as 127 % of control [2 of 3 alive]. For the same molecule, the survivor count (dose: 20.0 mg/kg/injection, schedule: Q01DX005 (ip), vehicle: other) was 1 of 3, the survivor count (dose: 20.0 mg/kg/injection, schedule: Q## X009 (ip), vehicle: lactic acid) was 2 of 6 and the survivor count (dose: 40.0 mg/kg/injection, schedule: Q## X009 (ip), vehicle: lactic acid) was 0 of 6.
`COC1(c2ccccc2)N=C(N)NC1(OC)c1ccccc1` (stereo unspecified) was tested, and the survivor count (dose: 50.0 mg/kg/injection, schedule: Q04DX002 (ip), vehicle: saline) was 3 of 6, the survivor count (dose: 100.0 mg/kg/injection, schedule: Q04DX002 (ip), vehicle: saline) was 0 of 6 and the survivor count (dose: 200.0 mg/kg/injection, schedule: Q04DX002 (ip), vehicle: saline) was 0 of 6.
In the case of `Cc1nc(C(Cl)(Cl)Cl)[nH]c(=O)c1SCCO`, the T/C (dose: 200.0 mg/kg/injection, schedule: Q01DX005 (ip), vehicle: distilled water + alcohol) is reported as 133 % of control and the T/C (dose: 400.0 mg/kg/injection, schedule: Q01DX005 (ip), vehicle: distilled water + alcohol) is reported as 135 % of control [4 of 5 alive].
For `CCN(CC)CCNc1ccc(COC(C)=O)c2oc3ccccc3c(=O)c12`, the T/C [10] was 125 % of control and the survivor count [11] was 6 of 6.
In the case of `O=S(=O)(Nc1ccccn1)c1ccc(N(CCCl)CCCl)cc1`, the survivor count [12] is reported as 5 of 6.
In the case of `COc1ccc2nccc(C(=O)CCC3CCN(C(=O)c4ccc([N+](=O)[O-])cc4)CC3C(Br)CBr)c2c1` (stereo unspecified), the survivor count [9] is reported as 0 of 6.
`CCCCCC1c2cc(O)ccc2OC1N1CCOCC1` (stereo unspecified) was tested, and the survivor count [13] was 5 of 6.
With `c1ccc(-c2cc3cc4ccccc4cn3c2)cc1` the T/C [13] was 133 % of control [4 of 5 alive], the survivor count (dose: 400.0 mg/kg/injection, schedule: Q01DX009 (ip), vehicle: saline with Tween-80) was 4 of 5 and the survivor count (dose: 600.0 mg/kg/injection, schedule: Q01DX009 (ip), vehicle: saline with Tween-80) was 2 of 5.
For `O=C(Nc1ccc(C2=NCCN2)cc1)c1ccc(C(=O)Nc2ccc(C3=NCCN3)cc2)cc1`, the survivor count (dose: 167.0 mg/kg/injection, schedule: Q01DX010 (ip), vehicle: saline) was 6 of 6 and the survivor count (dose: 250.0 mg/kg/injection, schedule: Q01DX010 (ip), vehicle: saline) was 6 of 6.
In the case of `CN(C)C(=O)Oc1ccc(OC(=O)N(C)C)c2ccccc12`, the survivor count [1] is reported as 2 of 6, the survivor count [2] is reported as 0 of 6 and 1 of 6 and the survivor count [3] is reported as 0 of 6. The survivor count [4] was 0 of 6.
With `CSC(SC)=C(C#N)c1nc(SC)c(C#N)c(SC)n1` the survivor count (dose: 200.0 mg/kg/injection, schedule: Q04DX003 (ip), vehicle: saline) was 3 of 6.
In the case of `Nc1nc2c(=O)[nH]c(=O)[nH]c2n1C1OC(CO)C(O)C1O` (stereo unspecified), the survivor count (dose: 120.0 mg/kg/injection, schedule: Q01DX005 (ip), vehicle: saline with Tween-80) is reported as 6 of 6 and the survivor count [6] is reported as 2 of 6.
In the case of `O=C1c2cccnc2-c2ncccc21`, the survivor count [6] is reported as 3 of 6.
In the case of `Cc1ncc(CO)c(CO)c1OCC(O)CN1CCN(C(=O)c2ccccc2)CC1` (stereo unspecified), the survivor count (dose: 240.0 mg/kg/injection, schedule: Q01DX005 (ip), vehicle: saline) is reported as 1 of 6.
For `CCOC(=O)CN(CCN(CC)CC)c1ccc([N+](=O)[O-])cc1[N+](=O)[O-]`, the survivor count (dose: 400.0 mg/kg/injection, schedule: Q01DX001 (ip), vehicle: other) was 4 of 6.
With `CCN(CC)CCCNc1cc(C)nc2c1ccc1c2ccc2c(NCCCN(CC)CC)cc(C)nc21` the survivor count [14] was 4 of 6.
`COc1ccc2cc3c[n+](C)ccc3cc2c1OC` was tested, and the survivor count (dose: 50.0 mg/kg/injection, schedule: Q01DX009 (ip), vehicle: water) was 1 of 6, the survivor count [14] was 3 of 6 and the survivor count (dose: 200.0 mg/kg/injection, schedule: Q01DX009 (ip), vehicle: water) was 0 of 6.
`COc1ccc(C(C)c2cc3c(cc2OC)OCO3)cc1` (stereo unspecified) was tested, and the T/C [10] was 98, 102, 108, 117 % of control, the T/C [11] was 112, 114, 116, 120, 132 % of control and the T/C [15] was 108, 126 [5 of 6 alive], 154, 176, 178 % of control. For the same molecule, the T/C [5] was 97 [4 of 6 alive] and 174 % of control [5 of 6 alive] and the survivor count [5] was 2 of 6, 3 of 6, 4 of 6.
In the case of `c1ccc2cc(OCC3CO3)c(OCC3CO3)cc2c1` (stereo unspecified), the T/C (dose: 30.0 mg/kg/injection, schedule: Q01DX005 (ip), vehicle: saline with Tween-80) is reported as 136 % of control and the T/C (dose: 60.0 mg/kg/injection, schedule: Q01DX005 (ip), vehicle: saline with Tween-80) is reported as 141 % of control.
In the case of `C=CC(COC(=O)C(C)(C)OC(C)=O)c1ccc(OC(=O)C(C)C)c(OC)c1` (stereo unspecified), the survivor count (dose: 25.0 mg/kg/injection, schedule: Q01DX009 (ip), vehicle: Klucel (hydroxypropylcellulose) (HPC)) is reported as 6 of 6.
For `CCCCCCCCCCCCCCN1CCOCC1`, the survivor count [16] was 2 of 6 and the survivor count [7] was 0 of 6.
With `C/C(=N\NC(=S)N1CCN(c2ncccn2)CC1)c1ccccn1` the survivor count [10] was 6 of 6, the survivor count [11] was 6 of 6 and the survivor count [15] was 0 of 6. The survivor count [5] was 0 of 6.
`CC(=O)NC(Cc1cnc[nH]1)C(C)=O` (stereo unspecified) was tested, and the survivor count (dose: 50.0 mg/kg/injection, schedule: Q01DX009 (ip), vehicle: saline) was 0 of 6, the survivor count [16] was 0 of 6 and the survivor count [7] was 0 of 6.
For `O=C(O)/C(O)=C/c1ccccc1`, the survivor count (dose: 50.0 mg/kg/injection, schedule: Q04DX003 (ip), vehicle: saline with Tween-80) was 3 of 6, the survivor count (dose: 100.0 mg/kg/injection, schedule: Q04DX003 (ip), vehicle: saline with Tween-80) was 2 of 6 and 4 of 6 and the survivor count [12] was 1 of 6.
In the case of `Nc1c(Cl)c(Cl)nc(C(=O)O)c1Cl`, the survivor count (dose: 400.0 mg/kg/injection, schedule: Q01DX009 (ip), vehicle: Klucel (hydroxypropylcellulose) (HPC)) is reported as 2 of 6.
In the case of `CCC(CC)N(C)C(C)(C)CO`, the survivor count (dose: 200.0 mg/kg/injection, schedule: Q04DX003 (ip), vehicle: saline sonified) is reported as 1 of 6.
With `O=[N+]([O-])c1ccc(Sc2ncccn2)cc1` the survivor count (dose: 100.0 mg/kg/injection, schedule: Q04DX002 (ip), vehicle: suspension in saline) was 3 of 6.
For `Nc1[nH]c(=S)nc2nc[nH]c12`, the survivor count [10] was 3 of 6, the survivor count [11] was 0 of 6 and the survivor count [15] was 0 of 6. For the same molecule, the survivor count [5] was 0 of 6.
